Binding data for one substance are collected here from article PMC5127583.

The chains behind the UniProt entries cited, without tags or fusion partners.
UniProt Q3URU2: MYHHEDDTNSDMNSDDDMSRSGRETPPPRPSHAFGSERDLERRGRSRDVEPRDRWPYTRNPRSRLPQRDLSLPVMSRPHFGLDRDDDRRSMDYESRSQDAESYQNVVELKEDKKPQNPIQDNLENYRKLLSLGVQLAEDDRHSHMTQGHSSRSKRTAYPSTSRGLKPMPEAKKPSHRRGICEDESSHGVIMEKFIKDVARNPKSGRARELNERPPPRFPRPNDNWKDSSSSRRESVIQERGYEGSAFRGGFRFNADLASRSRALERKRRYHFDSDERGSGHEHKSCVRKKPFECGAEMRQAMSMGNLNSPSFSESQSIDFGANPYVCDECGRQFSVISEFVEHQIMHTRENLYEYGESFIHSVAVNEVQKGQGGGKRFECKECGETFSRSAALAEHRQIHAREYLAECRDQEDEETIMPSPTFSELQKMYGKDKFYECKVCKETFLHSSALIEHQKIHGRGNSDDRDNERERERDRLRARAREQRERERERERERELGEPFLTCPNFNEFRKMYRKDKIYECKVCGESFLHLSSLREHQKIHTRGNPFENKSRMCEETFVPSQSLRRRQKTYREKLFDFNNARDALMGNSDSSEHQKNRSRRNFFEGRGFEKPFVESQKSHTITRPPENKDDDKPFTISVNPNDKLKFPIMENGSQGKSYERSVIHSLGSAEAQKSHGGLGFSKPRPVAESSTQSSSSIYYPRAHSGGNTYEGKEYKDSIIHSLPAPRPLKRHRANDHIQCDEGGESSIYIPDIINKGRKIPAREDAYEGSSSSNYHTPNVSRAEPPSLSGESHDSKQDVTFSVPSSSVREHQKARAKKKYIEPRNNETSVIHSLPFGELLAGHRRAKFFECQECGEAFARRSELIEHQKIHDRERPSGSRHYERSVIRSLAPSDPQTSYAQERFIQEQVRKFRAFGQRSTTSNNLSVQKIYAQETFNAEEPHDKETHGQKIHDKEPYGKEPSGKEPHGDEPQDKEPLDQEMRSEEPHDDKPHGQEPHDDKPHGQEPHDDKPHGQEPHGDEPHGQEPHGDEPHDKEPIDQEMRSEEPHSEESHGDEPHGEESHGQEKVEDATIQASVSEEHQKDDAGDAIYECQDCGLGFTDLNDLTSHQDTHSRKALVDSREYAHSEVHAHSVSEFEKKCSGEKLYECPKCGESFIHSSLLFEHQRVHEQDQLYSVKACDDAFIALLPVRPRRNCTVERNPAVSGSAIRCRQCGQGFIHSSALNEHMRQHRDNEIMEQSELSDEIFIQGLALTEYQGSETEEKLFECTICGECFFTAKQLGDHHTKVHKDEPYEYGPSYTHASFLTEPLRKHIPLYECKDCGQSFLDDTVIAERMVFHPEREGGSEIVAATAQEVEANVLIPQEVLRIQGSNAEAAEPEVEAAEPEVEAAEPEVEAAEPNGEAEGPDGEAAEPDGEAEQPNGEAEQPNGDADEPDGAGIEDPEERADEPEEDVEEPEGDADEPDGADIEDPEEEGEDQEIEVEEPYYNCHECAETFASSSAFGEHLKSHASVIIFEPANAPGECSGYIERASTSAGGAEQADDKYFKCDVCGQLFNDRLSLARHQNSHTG
UniProt Q13263: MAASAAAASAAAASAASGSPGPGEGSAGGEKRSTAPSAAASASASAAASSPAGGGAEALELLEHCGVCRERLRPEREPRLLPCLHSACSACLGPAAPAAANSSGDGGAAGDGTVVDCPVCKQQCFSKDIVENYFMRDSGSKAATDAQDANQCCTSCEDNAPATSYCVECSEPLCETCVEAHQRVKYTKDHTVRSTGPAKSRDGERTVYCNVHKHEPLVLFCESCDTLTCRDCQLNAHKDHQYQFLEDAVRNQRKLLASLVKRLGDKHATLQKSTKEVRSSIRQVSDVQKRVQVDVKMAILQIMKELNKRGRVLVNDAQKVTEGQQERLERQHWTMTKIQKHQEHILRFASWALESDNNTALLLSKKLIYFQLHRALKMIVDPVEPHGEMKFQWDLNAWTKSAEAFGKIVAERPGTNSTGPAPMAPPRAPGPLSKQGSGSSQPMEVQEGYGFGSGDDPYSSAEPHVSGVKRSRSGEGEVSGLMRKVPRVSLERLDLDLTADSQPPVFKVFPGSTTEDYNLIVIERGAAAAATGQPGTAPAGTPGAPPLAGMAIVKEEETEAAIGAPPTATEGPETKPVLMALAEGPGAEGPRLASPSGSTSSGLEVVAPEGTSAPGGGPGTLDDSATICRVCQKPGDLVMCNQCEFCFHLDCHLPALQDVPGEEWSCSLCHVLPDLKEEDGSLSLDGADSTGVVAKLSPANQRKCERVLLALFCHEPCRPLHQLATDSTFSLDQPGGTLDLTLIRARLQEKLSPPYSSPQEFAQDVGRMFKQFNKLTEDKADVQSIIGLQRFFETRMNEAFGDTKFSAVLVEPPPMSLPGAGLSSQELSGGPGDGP

Results are given in words; binding and its absence hold for the method and conditions named. In cells and extracts the contact can be indirect. Some entries that bind do so weakly or less than the wild type.

This assay deals with PEG3-FL, the full-length mouse PEG3 with the FLAG tag at the C-terminus (mouse) (UniProt Q3URU2). Briefly: co-IP; Neuro2a cells co-transfected with HA-KAP1 and PEG3-FL-FLAG or PEG3-Del(Ex7)-FLAG; Pierce IP Lysis Buffer; immunoprecipitated with anti-FLAG or anti-HA antibody; western blot with anti-KAP1 or anti-HA antibody. In general terms: In western blotting, separated proteins are transferred to a membrane and probed.

For the substance “human KAP1, full-length, with 3 HA tags at the N-terminus (pKH3-TRIM28) (from UniProt Q13263 1-835)”, the binding entry was “binds”.
